Data taken from ChEMBL document CHEMBL3988442, “University of Dundee, Small-Polar-MMV Screening Library” (2021).

The chains behind the UniProt entries cited, without tags or fusion partners.
UniProt P9WNZ1, whole entry: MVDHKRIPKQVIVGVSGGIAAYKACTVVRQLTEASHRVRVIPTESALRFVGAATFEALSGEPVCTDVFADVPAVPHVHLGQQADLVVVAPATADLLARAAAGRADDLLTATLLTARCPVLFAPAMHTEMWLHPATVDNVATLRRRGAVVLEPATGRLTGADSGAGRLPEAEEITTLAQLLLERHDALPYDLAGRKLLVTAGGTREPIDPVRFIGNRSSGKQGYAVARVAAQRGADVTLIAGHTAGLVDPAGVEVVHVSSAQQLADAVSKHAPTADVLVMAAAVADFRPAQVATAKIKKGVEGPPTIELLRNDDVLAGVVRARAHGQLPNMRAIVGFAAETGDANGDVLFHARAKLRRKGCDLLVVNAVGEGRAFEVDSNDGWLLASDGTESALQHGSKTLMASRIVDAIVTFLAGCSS

Leishmania in macrophages: 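Cell assay of Leishmania donovani living inside macrophages; the read-out is not stated. Tested at 30 µM. The record gives no direction; compounds that gave an IC50 in retests scored well above the rest, so higher reads as stronger inhibition. Of about 69,000 compounds tested this way, about 1,000 (1.5%) reached 50% or more in at least one test.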
CoaBC: 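Coenzyme A biosynthesis protein CoaBC, Mycobacterium tuberculosis (UniProt P9WNZ1). Enzyme assay of CoaBC with a phosphate dye (Biomol Green) read at 650 nm. Tested at 30 µM. Higher reads as stronger inhibition, judged from the few compounds that gave an IC50. Most strong results did not repeat in a second test. Of about 67,000 compounds tested this way, about 40 (0.06%) reached 50% or more in at least one test.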

The filed quantity is “Percent Effect” (%).
The record does not define 0% and 100%; most values in the screen are far below 50% and negative numbers occur (in some assays of this library far below -100).
Compounds were drawn at random from those tested, without regard to their results.
Two or more numbers in one place are separate tests of the same structure; such repeats can differ widely.
A dash means the value is not listed here; it may have been measured.

| # | structure | Leishmania in macrophages | CoaBC |
|---|---|---|---|
| 1 | `[H][C@@]12CN(C(=O)C3CC=CC3)C[C@]1([H])C(=O)N(Cc1cccc(C)n1)C2` | -9.347 | - |
| 2 | `CC(=O)c1cnc(NCCc2csc(-c3cnccn3)n2)nc1C` | 5.872 | 13.17 |
| 3 | `Cn1ccnc1C1CCN(S(=O)(=O)c2ccc3oc(=O)[nH]c3c2)CC1` | 18.47 | 1.353 |
| 4 | `Cl.O=C(Nc1cccc(F)c1)C1=NOC2(CCNCC2)C1` | 19.64 | - |
| 5 | `CC(=O)Nc1ccc2c(c1)C1(CCOCC1)C(=O)N2c1ccsc1` | 3.568 | 4.583 |
| 6 | `COc1cccc(COCC(O)CN(C)c2ccc(C)cc2C)c1` (centres unmarked) | 12.01 | 1.071 |
| 7 | `Cc1cc(C)n(C2CCCN(C(=O)Cc3cn4ccsc4n3)C2)n1` (centres unmarked) | -1.043 | 4.737 |
| 8 | `CCC(CNC(=O)c1ccco1)N1CCc2ccccc2C1` (centres unmarked) | 18.76 | 4.167 |
| 9 | `CC(C)S(=O)(=O)NCC1CCCN(C(=O)c2ccc(F)cc2)C1` (centres unmarked) | -34.27 | 6.112 |
| 10 | `O=C(Cc1ccc2c(c1)OCCO2)N1CCCC(n2cncn2)C1` (centres unmarked) | 6.3 | 15.77 |
| 11 | `COCCN1CCN(CCS(C)(=O)=O)CC1C` (centres unmarked) | -9.294 | 3.827 |
| 12 | `CC(N)Cc1ccccc1Sc1ccccc1` (centres unmarked) | - | 0.8949 |
| 13 | `Cn1cc(CN2CCOCC3(C2)CN(c2ccccc2)C(=O)CO3)cn1` (centres unmarked) | - | 2.445 |
| 14 | `CN1CCN(c2ccc(F)cc2C(N)=O)CC1` | 20.64 | 1.695 |
| 15 | `CN(C)CCN(Cc1ccccc1)C(=O)C1=NNC(=O)CC1` | 21.69 | 1.845 |
| 16 | `CCOc1ncccc1CNC(=O)N1CCCC1c1ccsc1` (centres unmarked) | -48.84 | -7.5 |
| 17 | `O=C(O)C(F)(F)F.O=S(=O)(C1CC1)N1CCn2cc(CNc3ccccn3)nc2C1` | 4.727 | - |
| 18 | `COc1ccc(C)cc1C(C)NC(=O)NCCCn1cncn1` (centres unmarked) | 45.67 | 4.302 |
| 19 | `CC1CS(=O)(=O)CCN1Cc1ccccc1N(C)C` (centres unmarked) | 1.801 | 3.187 |
| 20 | `O=C(O)C(F)(F)F.O=C(O)C(F)(F)F.[H][C@@]12CN(Cc3ccsc3)C[C@]1([H])OCCN2CC1CCCO1` (some centres unmarked) | 28.89 | - |
| 21 | `c1nc2c(c(NC3CCc4ncnn4C3)n1)CCC2` (centres unmarked) | -10.11 | 13.2 |
| 22 | `CC(NC(=O)CCCOc1ccc(F)cc1)c1nnc2n1CCC2` (centres unmarked) | 22.13 | -0.1164 |
| 23 | `COCc1cnc2n1CCN(C(=O)C1=CCCCC1)C2C` (centres unmarked) | 23.59 | 0.6729 |
| 24 | `CCC(C)CS(=O)(=O)NCCc1csc(N2CCCC2)n1` (centres unmarked) | 43.99 | -6.957 |
| 25 | `CC(C)(C)Cc1noc2ncc(C(=O)N3CCC3)cc12` | -4.123 | 1.814 |
| 26 | `CCCc1nnc(SCc2cc(=O)n3c4c(sc3n2)CCCC4)[nH]1` | 1.73 | 0.8475 |
| 27 | `Cn1c(N2CCOCC2)nc2cc(C(=O)N3CCCOCC3)ccc21` | -18.19 | 2.806 |
| 28 | `CNC(=O)CCc1cc(C)nc(C2CCCCN2)n1` (centres unmarked) | -3.082 & 30.7 | 1.937 |
| 29 | `CC(C)Nc1nc(N2CCCC2)nc2c1CCN(S(C)(=O)=O)CC2` | - | 13.93 |
| 30 | `CS(=O)(=O)CCN1CC(c2ccccc2)(c2ccccc2)CCC1=O` | -46.78 | -2.746 |
| 31 | `O=C(c1cscn1)N1CCCC2(CCN2Cc2cccc(F)c2)C1` (centres unmarked) | - | -0.9901 |
| 32 | `CCn1c(C)nnc1SCCNc1nc(C)ncc1S(C)(=O)=O` | 3.198 | 2.36 |
| 33 | `c1cnc2nc(N3CCCC3c3nnc4n3CCCCC4)ccc2n1` (centres unmarked) | -3.645 | 0.9685 |
| 34 | `Cc1ccc(C(C)N(C)CCS(=O)(=O)CCC(N)=O)cc1` (centres unmarked) | -1.914 | 4 |
| 35 | `[H][C@@]12CCN(C(=O)NCC)C[C@]1([H])CCN(C1CCCCC1)C(=O)C2` | 16.97 | - |
| 36 | `Cc1cccc(C)c1OC1CN(C(=O)C2CCN(C(=O)N(C)C)CC2)C1` | 9.917 | 1.707 |
| 37 | `CCn1cnnc1C1CCN(C(=O)CCCOc2ccccc2)CC1` | -0.01653 | 17.05 |
| 38 | `Cc1nn(CC(=O)N2CCCN(c3cccnn3)CC2)c(C)c1Cl` | 7.257 | -1.053 |
| 39 | `Cc1ccc(C(=O)N(C)Cc2cc(C)on2)cn1` | -11.9 | 6.005 |
| 40 | `CC[C@H]1COCCN1C(=O)c1cnc(N2CCN(C)CC2)nc1C` | 9.818 | -4.177 |
| 41 | `Cc1cc(CN2CCN(CC3CC3)[C@@H]3CS(=O)(=O)C[C@@H]32)ccc1F` | - | 1.028 |
| 42 | `CN(Cc1ccco1)Cc1ccccc1CNC(=O)c1csnn1` | -2.842 | -9.615 |
| 43 | `CS(=O)(=O)N1CCC(n2nnn(-c3ccccc3)c2=O)CC1` | 8.115 | 0.7177 |
| 44 | `Cc1ccc(CNC(=O)CCNS(C)(=O)=O)cc1` | 10.44 | 3.181 |
| 45 | `CN(C)CCOCC1CN(C(=O)c2cscn2)Cc2ccnn2C1` (centres unmarked) | -9.761 | 1.954 |
| 46 | `Cc1cc(NC(=O)CN2CCCC2c2noc(C3CC3)n2)n(C)n1` (centres unmarked) | 11.53 | 0.5222 |
| 47 | `Cc1nc2cc(CNC(=O)C3CC(=O)N(CCN(C)C)C3)ccc2n1C` (centres unmarked) | 7.725 | 0.6053 |
| 48 | `CC(C)CC(=O)N1CC(=O)c2sc(Nc3ccc(C#N)cc3)nc2C1` | 9.074 & 18.35 | 0.8434 |
| 49 | `CC(C)CNC(=O)CN(CC(=O)NCC(C)C)S(C)(=O)=O` | 30.41 | 8.099 |
| 50 | `CC(=O)N(Cc1ncc(C(C)C)o1)C1CCN(CCn2cncn2)C1` (centres unmarked) | 30.32 | 10.83 |
| 51 | `CC(C)c1cc(C(=O)N2CCN(C)[C@@H]3CS(=O)(=O)C[C@@H]32)no1` | - | 2.545 |
| 52 | `COc1ccc(OC)c(C2CCN(c3ccc4cc[nH]c4n3)C2)c1` (centres unmarked) | 20.86 | 11.31 |
| 53 | `[H][C@@]12CN(C(C)=O)C[C@]1([H])C(=O)N(C)C21CCN(C(=O)C(C)C)CC1` | -2.824 | - |
| 54 | `[H][C@@]12CS(=O)(=O)C[C@]1([H])N(Cc1nccn1C)CCN2Cc1ccc(C)o1` | 16.96 | - |
| 55 | `Cc1cc(-c2nc(C3(NC(=O)OC(C)(C)C)CCC3)no2)on1` | 5.747 | 10.08 |
| 56 | `[H][C@@]12CCN(S(=O)(=O)c3ccccc3)[C@]1([H])CC[C@@H](c1nc(C)no1)O2` | -5.066 | - |
| 57 | `Cc1nn(C)c2nc(N(C)CC3CCN(CC(C)C)C3)sc12` (centres unmarked) | -9.294 | 7.229 |
| 58 | `O=C(NCc1cccs1)[C@]12COC[C@H]1CN(c1ncccn1)C2` | - | 2.24 |
| 59 | `Cn1ncc2c1CCCC2NCc1cnc(-c2ccccc2)nc1` (centres unmarked) | 21.11 | 5.338 |
| 60 | `CNC(=O)[C@@]12CCO[C@@H]1CCN(S(=O)(=O)c1cccnc1)C2` | - | 5.913 |
| 61 | `CCN(CC)C(=O)[C@@H]1C[C@H](N)CN1C(=O)c1cc2c([nH]c1=O)CCC2` | -10.42 | -1.468 |
| 62 | `CC(CN1CCOCC1)NCC1CCN(c2cnn(C)c(=O)c2)CC1` (centres unmarked) | -14.11 | -2.11 |
| 63 | `O=C(c1cccc(NCCOc2ccc(F)cc2)c1)N1CCOCC1` | 19.69 | 3.807 |
| 64 | `CCOCCn1c(=O)n(CCC=C(C)C)c2cc(C(=O)O)cnc21` | -6.079 | -11.11 |
| 65 | `COCC1COCCC12CCN(S(=O)(=O)c1ccccc1C)CC2` (centres unmarked) | -8.315 | 0.6061 |
| 66 | `c1csc(N2CCN(Cc3nnnn3C3CC3)CC2)n1` | -9.847 | 15.63 |
| 67 | `O=C(NCc1cccc(N2CCCCC2=O)c1)[C@@H](O)c1ccccc1` | 10.6 | 0.6479 |
| 68 | `CSCc1ccc(CNCCN2CCOCC2)o1` | 29.35 | 7.656 |
| 69 | `Cc1ncncc1-c1ccnc(N)n1` | 1.703 & 14.05 | 1.807 |
| 70 | `CCc1ccccc1CN1CCN(Cc2ncc[nH]2)[C@H]2CS(=O)(=O)C[C@H]21` | - | 15.37 |
| 71 | `Cc1ccc(C)c(C(=O)N2CCOC(CCN(C)C)C2)c1` (centres unmarked) | 10.51 | 0.6889 |
| 72 | `Cc1nn(C)c(C)c1C1CCCN1C(=O)CCCn1cccn1` (centres unmarked) | -1.878 | 3.84 |
| 73 | `CCOC1CC2(CCN(CCO)CC2)c2ccc(C)cc21` (centres unmarked) | 35.68 | 8.811 |
| 74 | `CCc1nc(-c2cncnc2C2CCCNC2)no1.Cl` (centres unmarked) | 39.27 | - |
| 75 | `Cc1nsc(NC(=O)NC2(CN3CCCCC3)CCCCC2)n1` | 4.321 | -3.97 |
| 76 | `Cc1cc(NC(=O)CN2CCn3c(C)nnc3C2)no1` | -14.05 | 4.968 |
| 77 | `Cc1cc(CNC(=O)CCc2c(C)nc3cc(O)nn3c2C)no1` | 18.93 | 5.548 |
| 78 | `CCC(=O)NCC(=O)NC(Cc1ccccc1)c1sccc1C` (centres unmarked) | -8.268 | 1.992 |
| 79 | `COc1cccc(CNC(=O)C(c2cccc(F)c2)N2CCOCC2)c1` (centres unmarked) | 26.38 | -2.564 |
| 80 | `CCS(=O)(=O)N1CCC(c2nnc(CN3CCCCC3)n2C)CC1` | 8.877 | 0.6048 |
| 81 | `COc1cc(N2CCC3(CCN(Cc4csc(C)n4)C3)CC2)ncn1.O=C(O)C(F)(F)F` | 30.69 | - |
| 82 | `NC(=O)NC(=O)CCn1ccc(-c2ccc(F)cc2)n1` | 13.27 | 1.138 |
| 83 | `CCc1nc(C)c([C@H]2CN(C)C[C@@H]2C(=O)Nc2cccc3cn[nH]c23)[nH]1` | 27.14 | -13.61 |

Once more, the final 10:

structure,Leishmania in macrophages,CoaBC
CCc1nc(-c2cncnc2C2CCCNC2)no1.Cl (centres unmarked),39.27,-
Cc1nsc(NC(=O)NC2(CN3CCCCC3)CCCCC2)n1,4.321,-3.97
Cc1cc(NC(=O)CN2CCn3c(C)nnc3C2)no1,-14.05,4.968
Cc1cc(CNC(=O)CCc2c(C)nc3cc(O)nn3c2C)no1,18.93,5.548
CCC(=O)NCC(=O)NC(Cc1ccccc1)c1sccc1C (centres unmarked),-8.268,1.992
COc1cccc(CNC(=O)C(c2cccc(F)c2)N2CCOCC2)c1 (centres unmarked),26.38,-2.564
CCS(=O)(=O)N1CCC(c2nnc(CN3CCCCC3)n2C)CC1,8.877,0.6048
COc1cc(N2CCC3(CCN(Cc4csc(C)n4)C3)CC2)ncn1.O=C(O)C(F)(F)F,30.69,-
NC(=O)NC(=O)CCn1ccc(-c2ccc(F)cc2)n1,13.27,1.138
CCc1nc(C)c([C@H]2CN(C)C[C@@H]2C(=O)Nc2cccc3cn[nH]c23)[nH]1,27.14,-13.61